Measured values from publication PMC10897342, “An octameric PqiC toroid stabilises the outer-membrane interaction of the PqiABC transport system” (EMBO Reports, 2024).
No constants are given. Whether binding was seen depends on the method and setting.

Target: PqiC^17-187, N-terminally truncated soluble construct of E. coli PqiC (E. coli) (UniProt P0AB10)
Assay: SEC; PqiC^17-187 on Superdex 200 26/600 in 20 mM Tris, 150 mM NaCl, pH 8.5; elution compared with Ribonuclease A (13.7 kDa); both purified

B1: PqiC^17-187, N-terminally truncated soluble construct of E. coli PqiC (domain or fragment, UniProt P0AB10 17-187)
chain: SSGEINKNYYQLPVVQSGTQSTASQGNRLLWVEQVTVPDYLAGNGVVYQTSDVKYVIANNNLWASPLDQQLRNTLVANLSTQLPGWVVASQPLGSAQDTLNVTVTEFNGRYDGKVIVSGEWLLNHQGQLIKRPFRLEGVQTQDGYDEMVKVLAGVWSQEAASIAQEIKRLP
For B1, the binding was “no binding”.
